Assay [1] addresses T1, TatC (wild type, C-terminally hexahistidine-tagged) (Escherichia coli) (UniProt P69423).
T1 sequence: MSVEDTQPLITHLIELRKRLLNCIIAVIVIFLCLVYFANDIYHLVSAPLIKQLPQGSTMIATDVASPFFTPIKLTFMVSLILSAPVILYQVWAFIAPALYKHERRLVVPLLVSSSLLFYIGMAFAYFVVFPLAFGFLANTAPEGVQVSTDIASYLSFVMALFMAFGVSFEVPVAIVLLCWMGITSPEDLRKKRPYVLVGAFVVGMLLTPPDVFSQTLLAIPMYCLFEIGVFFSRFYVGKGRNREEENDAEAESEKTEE
The assay can be described thus: native gel or EMSA; BN-PAGE/Western blot of membranes solubilized with 1% digitonin, without beta-mercaptoethanol; blots with TatB, TatC or (after stripping) EfeB antibodies; EfeB overproduced where indicated.

The target of assay [2] is T2, TatC I50Y (Escherichia coli) (UniProt P69423).
T2 sequence: T1 sequence with I50Y
Described as above.

Where a chain is given by its changes, count along the chain named. These are yes or no findings as the source states them, for the method shown. Some binding calls cover weakened binding; strength is not graded here. For some assays here: Sequences can lack the tags named with a protein.

B1: TatB (protein, UniProt P69425 1-171)
chain: MFDIGFSELLLVFIIGLVVLGPQRLPVAVKTVAGWIRALRSLATTVQNELTQELKLQEFQDSLKKVEKASLTNLTPELKASMDELRQAAESMKRSYVANDPEKASDEAHTIHNPVVKDNEAAHEGVTPAAAQTQASSPEQKPETTPEPVVKPAADAEPKTAAPSPSSSDKP
Consider B1, for which the binding entry in assay [1] and in assay [2] was “binds” throughout.
